Test results as given in PubChem BioAssay (Tox21).
The shares of active, inactive and inconclusive entries below differ from those in the screen. Potencies of inconclusive entries are doubtful fits and often do not repeat. Calls of active or inactive are those of the source. Calls follow the shape of the dose curve; as a rule, active = well fitted cell-killing curve with a large enough effect in the repeat runs; inconclusive = weak or mixed curves, or effect the other way; inactive = flat fitted curve, though single readings scatter.

Assay: cAMP Responsive Elements (CRE) small molecule agonists, cell-based qHTS assay: qHTS cell viability counter screen (AID 2060914); also: nearly all actives have a fitted effect of over 50% in size
Outline: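 In the same wells as the reporter read, viability of CRE-bla HEK 293T cells was quantified by CellTiter-Glo luminescence after a 3 h compound exposure.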
% is scaled to controls: 0 for no effect and ±100 for the full control effect; potency is read from the fitted curve at half-maximal effect.

| SMILES | Potency | activity change, negative = cytotoxicity |
| --- | --- | --- |
| Nc1ncn([C@@H]2O[C@H](CO)[C@@H](O)[C@H]2O)c(=O)n1 | inconclusive: 7.7 µM [rising, full curve] | – |
| O | inactive | – |
| COC(Cc1ccccc1)OC | inconclusive: 27.3 µM [cytotoxic, partial curve, poor fit] | – |
| CC(CCO)CC(C)(C)C (stereo unspecified) | inconclusive: 1.25 µM [rising, full curve, poor fit] | – |
| CCCCCCCCCCCCCCCCCC(=O)OCC(O)CO (stereo unspecified) | inactive | – |
| CCCCC(CC)CO (stereo unspecified) | inactive | – |
| C=C(C)C(N)=O | inactive | – |
| CCCCNC(=O)NCCCC | inconclusive: 0.243 µM [cytotoxic, single point] | – |
| CC1(C)[C@H]2CC[C@](C)(C2)[C@H]1O | inconclusive: 14.2 µM [cytotoxic, single point] | – |
| FC(F)(F)C(F)(F)C(F)(F)C(F)(F)C(F)(F)C(F)(F)C(F)(F)C(F)(F)Br | inactive | – |
| CCCCCCC | inactive | – |
| COC(=O)OC | inactive | – |
| N=C(N=C(N)N)N1CCOCC1 | inconclusive: 1.19 µM [cytotoxic, single point] | – |
| CNCc1ccc(NC(=O)c2c[nH]c3c2C(=O)CCC3)cc1 | inconclusive: 6.86 µM [cytotoxic, partial curve, poor fit] | – |
| Nc1cnn([C@@H]2O[C@H](CO)[C@@H](O)[C@H]2O)c(=O)n1 | active: 0.97 µM | – |
| NC(=O)COCCN1CCN(C(c2ccccc2)c2ccc(Cl)cc2)CC1 (stereo unspecified) | inactive | – |

Copied from the list:
Potency with `N=C(N=C(N)N)N1CCOCC1` reads inconclusive: 1.19 µM [cytotoxic, single point]
Potency with `C=C(C)C(N)=O` reads inactive

The results go on:

| SMILES | Potency | activity change, negative = cytotoxicity |
| --- | --- | --- |
| Cc1ccc(C(C)C)cc2c(C)ccc1-2 | inactive | – |
| COc1cc(C(C)(C)C)c(O)c(C(C)(C)C)c1 | inactive | – |
| CN1CCN(C2=Nc3cc(F)ccc3Cc3ccccc32)CC1 | inconclusive: 3.35 µM [cytotoxic, single point] | – |
| [Cl][In]([Cl])[Cl] | inconclusive: 19.3 µM [rising, partial curve, poor fit] | – |
| CC(=O)c1ccc2c(c1)CCCC2 | inactive | – |
| CC(C)C[C@@H](N)C(=O)O | – | inactive: -6.51% [at 18.9 µM] |
| CN(CC1(C)CCCO1)S(=O)(=O)c1ccc(Cl)c(S(N)(=O)=O)c1 (stereo unspecified) | inconclusive: 11.9 µM [rising, single point] | – |
| Cc1cn([C@H]2C[C@H](N=[N+]=[N-])[C@@H](CO)O2)c(=O)[nH]c1=O | inconclusive: 0.119 µM [cytotoxic, single point] | – |
| O=[N+]([O-])c1ccc2ncccc2c1 | inactive | – |
| CC1=C(C(=O)OC(C)C)C(c2cccc([N+](=O)[O-])c2)C(C(=O)OC2CN(C(c3ccccc3)c3ccccc3)C2)=C(N)N1 (stereo unspecified) | inconclusive: 33.5 µM [cytotoxic, single point] | – |
| Cc1cc(=O)oc2cc(N(C)C)ccc12 | inconclusive: 68.6 µM [cytotoxic, single point] | – |
| CC(C(=O)O)c1ccc(CC2CCCC2=O)cc1 (stereo unspecified) | inconclusive: 7.5 µM [cytotoxic, single point] | – |
| Nc1ccc([N+](=O)[O-])cc1O | inconclusive: 0.611 µM [cytotoxic, single point] | – |
| Cc1ccc2oc(=O)ccc2c1 | inconclusive: 0.002 µM [cytotoxic, full curve, poor fit] | – |
| Cc1ccc(S(=O)(=O)NC(=O)NN2CCCCCC2)cc1 | inconclusive: 5.31 µM [cytotoxic, single point] | – |
